Assay results reported in paper PMC12969390.
No constants are given. Whether binding was seen depends on the method and setting. Binding seen in cells or lysates may run through a third protein. These calls come from enrichment with a bait or labelling near it, and not all partners need be listed. For some of these results: No binding means not detected with the bait.

By UniProt entry, the sequences of proteins in these tests, tags left out.
UniProt A0A1D8PSS1: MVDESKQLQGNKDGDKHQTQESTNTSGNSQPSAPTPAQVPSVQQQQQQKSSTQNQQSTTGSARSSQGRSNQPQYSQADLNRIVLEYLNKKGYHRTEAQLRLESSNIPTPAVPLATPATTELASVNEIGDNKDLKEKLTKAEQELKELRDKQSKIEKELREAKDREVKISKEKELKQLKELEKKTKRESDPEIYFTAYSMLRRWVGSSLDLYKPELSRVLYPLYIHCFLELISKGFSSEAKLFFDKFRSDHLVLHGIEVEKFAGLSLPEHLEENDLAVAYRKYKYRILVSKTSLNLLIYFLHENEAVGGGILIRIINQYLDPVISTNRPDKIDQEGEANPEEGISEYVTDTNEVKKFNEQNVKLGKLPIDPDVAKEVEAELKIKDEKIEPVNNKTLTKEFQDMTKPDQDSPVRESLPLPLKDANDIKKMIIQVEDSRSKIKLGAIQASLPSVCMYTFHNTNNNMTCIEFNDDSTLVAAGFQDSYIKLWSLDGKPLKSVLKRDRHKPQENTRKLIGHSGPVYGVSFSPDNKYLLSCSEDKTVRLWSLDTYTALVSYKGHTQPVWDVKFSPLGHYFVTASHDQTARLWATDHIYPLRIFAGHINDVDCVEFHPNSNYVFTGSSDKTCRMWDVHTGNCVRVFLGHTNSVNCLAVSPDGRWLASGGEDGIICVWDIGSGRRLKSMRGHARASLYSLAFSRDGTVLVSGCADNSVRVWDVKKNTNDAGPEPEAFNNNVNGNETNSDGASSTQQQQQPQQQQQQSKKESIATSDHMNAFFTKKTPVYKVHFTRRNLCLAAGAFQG
UniProt A0A1D8PNT2: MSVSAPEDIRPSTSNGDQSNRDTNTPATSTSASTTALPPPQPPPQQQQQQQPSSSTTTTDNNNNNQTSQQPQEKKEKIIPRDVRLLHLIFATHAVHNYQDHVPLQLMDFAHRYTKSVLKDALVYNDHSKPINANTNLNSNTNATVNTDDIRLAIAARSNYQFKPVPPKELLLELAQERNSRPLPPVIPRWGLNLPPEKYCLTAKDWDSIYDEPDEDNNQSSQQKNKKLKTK
UniProt A0A1D8PSN1: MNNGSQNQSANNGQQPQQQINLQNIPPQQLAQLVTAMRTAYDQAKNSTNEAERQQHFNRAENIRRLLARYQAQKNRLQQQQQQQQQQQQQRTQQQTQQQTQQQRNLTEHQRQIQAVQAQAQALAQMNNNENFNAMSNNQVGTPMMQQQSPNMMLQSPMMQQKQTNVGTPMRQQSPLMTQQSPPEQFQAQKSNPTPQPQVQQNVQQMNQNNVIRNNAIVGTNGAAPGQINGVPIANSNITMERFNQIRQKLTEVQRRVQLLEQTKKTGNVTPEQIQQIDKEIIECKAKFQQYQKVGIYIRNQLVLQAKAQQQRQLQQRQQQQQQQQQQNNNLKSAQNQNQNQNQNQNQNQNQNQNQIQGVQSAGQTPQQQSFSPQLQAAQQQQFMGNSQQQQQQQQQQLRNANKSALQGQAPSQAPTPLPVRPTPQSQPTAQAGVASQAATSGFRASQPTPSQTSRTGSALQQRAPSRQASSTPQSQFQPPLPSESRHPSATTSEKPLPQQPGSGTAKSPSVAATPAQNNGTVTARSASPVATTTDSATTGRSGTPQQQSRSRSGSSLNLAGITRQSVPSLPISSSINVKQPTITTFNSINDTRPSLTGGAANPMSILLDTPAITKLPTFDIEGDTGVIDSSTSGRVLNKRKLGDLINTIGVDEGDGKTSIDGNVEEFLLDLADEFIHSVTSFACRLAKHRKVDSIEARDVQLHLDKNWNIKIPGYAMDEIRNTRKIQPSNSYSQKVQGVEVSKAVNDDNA

Assays:
[1] = biological target: 3xFLAG-tagged TAF12L (C. albicans); test: affinity purification with mass spectrometry; TAF12L-FLAG purified from C. albicans extract on anti-FLAG M2 affinity agarose, eluted, MudPIT; untagged strain SN87 as control
TAF11-TAP (C. albicans) = biological target: T1, TAF11-TAP (C. albicans) (UniProt Q59SU6); test: affinity purification with mass spectrometry; TBP-TAP and TAF11-TAP affinity purified from C. albicans strains, MudPIT; untagged strain SN87 as control
T1 sequence: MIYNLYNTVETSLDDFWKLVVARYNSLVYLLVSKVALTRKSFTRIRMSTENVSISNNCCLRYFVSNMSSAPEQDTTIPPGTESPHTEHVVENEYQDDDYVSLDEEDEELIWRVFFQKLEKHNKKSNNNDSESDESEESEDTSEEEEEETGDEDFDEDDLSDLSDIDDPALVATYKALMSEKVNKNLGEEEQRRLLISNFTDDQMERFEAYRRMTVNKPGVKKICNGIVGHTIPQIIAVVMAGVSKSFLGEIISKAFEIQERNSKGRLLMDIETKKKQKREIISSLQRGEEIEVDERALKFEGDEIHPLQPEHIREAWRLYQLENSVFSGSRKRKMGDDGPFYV

TBP-TAP (C. albicans) = biological target: T2, TBP-TAP (C. albicans) (UniProt O43133); test: as above
T2 sequence: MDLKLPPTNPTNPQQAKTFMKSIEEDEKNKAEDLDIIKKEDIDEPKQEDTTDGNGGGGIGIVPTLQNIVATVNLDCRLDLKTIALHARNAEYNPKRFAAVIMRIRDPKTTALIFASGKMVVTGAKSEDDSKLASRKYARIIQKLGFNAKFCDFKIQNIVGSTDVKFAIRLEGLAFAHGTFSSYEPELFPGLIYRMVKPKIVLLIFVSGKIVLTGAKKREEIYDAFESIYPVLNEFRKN

Substance: TAF5 (from UniProt A0A1D8PSS1 1-798)
- binding [1]: binds

Substance: TAF9 (from UniProt A0A1D8PNT2 1-231)
- binding [1]: binds

Substance: TAF12L (from UniProt A0A1D8PSN1 1-750)
- binding (TAF11-TAP (C. albicans)): no binding
- binding (TBP-TAP (C. albicans)): no binding
